These are yes or no findings as the source states them, for the method shown. Binding seen in cells or lysates may run through a third protein. Binding can be weak; no strength is given. Tags and fused reporters may be left off the sequences shown.
biological target: T1, CSEP0064/BEC1054 bait, C-terminally tagged with the C-terminal half of mYFP (Blumeria graminis f.sp. hordei) (UniProt N1JJ94); assay: split reporter
T1 sequence: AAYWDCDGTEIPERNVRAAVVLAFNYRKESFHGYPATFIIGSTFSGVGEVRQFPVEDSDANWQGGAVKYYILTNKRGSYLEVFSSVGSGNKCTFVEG

Substance	binding
malate dehydrogenase (MDH), BiFC prey (barley (Hordeum vulgare)) (enzyme)	no binding
Glutathione-S-Transferase (GST), C-terminally tagged with the N-terminal domain of mYFP (from UniProt A0A0U2I2F3) (enzyme)	binds
ribosomal 40S subunit protein 16 (40S S16), BiFC prey (barley (Hordeum vulgare))	no binding
eukaryotic Elongation Factor 1 Alpha isoform 3 (eEF1α(3)), BiFC prey (barley (Hordeum vulgare))	no binding
